The text below walks through data of publication PMC6335200 (Journal of medicinal chemistry, 2018).

As a reminder, the Papp A→B is how fast a substance crosses the layer from the apical side. Usually Papp B→A stands for how fast a substance crosses the layer from the basolateral side. Broadly, the efflux ratio is a quotient of directional permeabilities that is used to spot active efflux.

In the series the test system is MDR1. The series is described as follows: in vitro. The following applies: dog, MDCK-MDR1.

Molecules are shown by their SMILES.

For the molecule `CC(C)NCC(O)COc1ccc(CC(N)=O)cc1` (stereo not drawn) [Atenolol, atenolol], the Papp A→B at 1.5 h, 5 µM was 1.21 ×10⁻⁶ cm/s; the Papp B→A at 1.5 h, 5 µM was 1.25 ×10⁻⁶ cm/s; the efflux ratio at 1.5 h, 5 µM came to 1.03.
